Measurements published in US9926581B2, “Fagopyritol synthase genes and uses thereof” (Cornell Research Foundation, Inc., priority 2002, dated 2018).

How the values were obtained:
[1] = system: soybean explants; experiment: Soybean explant feeding 3 days with 50 mM cyclitol in 1% sucrose, slow drying time course, soluble carbohydrates in axis, cotyledon, seed coat and leaf
[2] = system: soybean explants; experiment: Soybean explant feeding with 50 mM free cyclitols for one week, soluble carbohydrates in mature seeds; format: in vivo, Glycine max (L.) Merrill cv. Chippewa 64
[3] = 3 days transport of sucrose (1%) and D-pinitol (50 mM), after 4 days slow drying, Rep 2
[4] = 3 days transport of sucrose (1%) and D-pinitol (50 mM), after 14 days slow drying, Rep 1
[5] = 3 days transport of sucrose (1%) and D-pinitol (50 mM), after 14 days slow drying, Rep 2
[6] = 3 days transport of sucrose (1%) and D-pinitol (50 mM), before slow drying, Rep 1
[7] = 3 days transport of sucrose (1%) and D-pinitol (50 mM), before slow drying, Rep 2
[8] = 3 days transport of sucrose (1%) and myo-inositol (50 mM), after 2 days slow drying, Rep 1
[9] = 3 days transport of sucrose (1%) and myo-inositol (50 mM), after 2 days slow drying, Rep 2
[10] = 3 days transport of sucrose (1%) and myo-inositol (50 mM), after 4 days slow drying, Rep 1
[11] = 3 days transport of sucrose (1%) and myo-inositol (50 mM), after 4 days slow drying, Rep 2
[12] = 3 days transport of sucrose (1%) and myo-inositol (50 mM), after 14 days slow drying, Rep 1
[13] = 3 days transport of sucrose (1%) and myo-inositol (50 mM), after 14 days slow drying, Rep 2
[14] = 3 days transport of sucrose (1%) and myo-inositol (50 mM), before slow drying, Rep 1
[15] = 3 days transport of sucrose (1%) and myo-inositol (50 mM), before slow drying, Rep 2
[16] = 3 days transport of sucrose (1%) without cyclitols, after 2 days slow drying, Rep 1
[17] = 3 days transport of sucrose (1%) without cyclitols, after 2 days slow drying, Rep 2
[18] = 3 days transport of sucrose (1%) without cyclitols, after 4 days slow drying, Rep 1
[19] = 3 days transport of sucrose (1%) without cyclitols, after 4 days slow drying, Rep 2
[20] = 3 days transport of sucrose (1%) without cyclitols, after 14 days slow drying, Rep 1
[21] = 3 days transport of sucrose (1%) without cyclitols, after 14 days slow drying, Rep 2
[22] = 3 days transport of sucrose (1%) without cyclitols, before slow drying, Rep 1
[23] = 3 days transport of sucrose (1%) without cyclitols, before slow drying, Rep 2

OC[C@H]1O[C@H](OC2[C@@H](O)[C@H](O)C(O)[C@H](O)[C@@H]2O)[C@H](O)[C@@H](O)[C@H]1O (stereo partly drawn) [Galactinol, galactinol, reference compound]
Accumulation of soluble carbohydrates in soybean cotyledon [1, 3]: 37.07 μg/cotyledon
Accumulation of soluble carbohydrates in soybean seed coat [1, 3]: 0 μg/seed coat
Accumulation of soluble carbohydrates in soybean axis [1, 4]: 3.92 μg/axis
Accumulation of soluble carbohydrates in soybean cotyledon [1, 4]: 11.23 μg/cotyledon
Accumulation of soluble carbohydrates in soybean seed coat [1, 4]: 0 μg/seed coat
Accumulation of soluble carbohydrates in soybean axis [1, 5]: 4.18 μg/axis
Accumulation of soluble carbohydrates in soybean cotyledon [1, 5]: 10.39 μg/cotyledon
Accumulation of soluble carbohydrates in soybean seed coat [1, 5]: 2.77 μg/seed coat
Accumulation of soluble carbohydrates in soybean axis [1, 6]: 2.27 μg/axis
Accumulation of soluble carbohydrates in soybean cotyledon [1, 6]: 0 μg/cotyledon
Accumulation of soluble carbohydrates in soybean axis [1, 7]: 2.97 μg/axis
Accumulation of soluble carbohydrates in soybean cotyledon [1, 7]: 0 μg/cotyledon
Accumulation of soluble carbohydrates in soybean axis [1, 8]: 12.80 μg/axis
Accumulation of soluble carbohydrates in soybean cotyledons [1, 8]: 85.06 μg/cotyledon
Accumulation of soluble carbohydrates in soybean seed coats [1, 8]: 0 μg/seed coat
Accumulation of soluble carbohydrates in soybean axis [1, 9]: 10.83 μg/axis
Accumulation of soluble carbohydrates in soybean cotyledons [1, 9]: 104.07 μg/cotyledon
Accumulation of soluble carbohydrates in soybean seed coats [1, 9]: 0 μg/seed coat
Accumulation of soluble carbohydrates in soybean axis [1, 10]: 7.31 μg/axis
Accumulation of soluble carbohydrates in soybean cotyledons [1, 10]: 57.03 μg/cotyledon
Accumulation of soluble carbohydrates in soybean axis [1, 11]: 4.07 μg/axis
Accumulation of soluble carbohydrates in soybean cotyledons [1, 11]: 25.34 μg/cotyledon
Accumulation of soluble carbohydrates in soybean seed coats [1, 11]: 0 μg/seed coat
Accumulation of soluble carbohydrates in soybean axis [1, 12]: 6.76 μg/axis
Accumulation of soluble carbohydrates in soybean cotyledons [1, 12]: 14.65 μg/cotyledon
Accumulation of soluble carbohydrates in soybean seed coats [1, 12]: 2.61 μg/seed coat
Accumulation of soluble carbohydrates in soybean axis [1, 13]: 4.14 μg/axis
Accumulation of soluble carbohydrates in soybean cotyledons [1, 13]: 14.10 μg/cotyledon
Accumulation of soluble carbohydrates in soybean seed coats [1, 13]: 2.91 μg/seed coat
Accumulation of soluble carbohydrates in soybean axis [1, 14]: 3.01 μg/axis
Accumulation of soluble carbohydrates in soybean cotyledons [1, 14]: 0 μg/cotyledon
Accumulation of soluble carbohydrates in soybean axis [1, 15]: 3.59 μg/axis
Accumulation of soluble carbohydrates in soybean cotyledons [1, 15]: 0 μg/cotyledon
Accumulation of soluble carbohydrates in soybean axis [1, 16]: 11.09 μg/axis
Accumulation of soluble carbohydrates in soybean cotyledon [1, 16]: 83.71 μg/cotyledon
Accumulation of soluble carbohydrates in soybean seed coats [1, 16]: 0 μg/seed coat
Accumulation of soluble carbohydrates in soybean axis [1, 17]: 13.41 μg/axis
Accumulation of soluble carbohydrates in soybean cotyledon [1, 17]: 166.27 μg/cotyledon
Accumulation of soluble carbohydrates in soybean seed coats [1, 17]: 0 μg/seed coat
Accumulation of soluble carbohydrates in soybean axis [1, 18]: 5.60 μg/axis
Accumulation of soluble carbohydrates in soybean cotyledon [1, 18]: 52.22 μg/cotyledon
Accumulation of soluble carbohydrates in soybean seed coats [1, 18]: 1.50 μg/seed coat
Accumulation of soluble carbohydrates in soybean axis [1, 19]: 4.29 μg/axis
Accumulation of soluble carbohydrates in soybean cotyledon [1, 19]: 25.06 μg/cotyledon
Accumulation of soluble carbohydrates in soybean seed coats [1, 19]: 0 μg/seed coat
Accumulation of soluble carbohydrates in soybean axis [1, 20]: 4.38 μg/axis
Accumulation of soluble carbohydrates in soybean cotyledon [1, 20]: 28.60 μg/cotyledon
Accumulation of soluble carbohydrates in soybean seed coats [1, 20]: 0 μg/seed coat
Accumulation of soluble carbohydrates in soybean axis [1, 21]: 4.27 μg/axis
Accumulation of soluble carbohydrates in soybean cotyledon [1, 21]: 26.57 μg/cotyledon
Accumulation of soluble carbohydrates in soybean seed coats [1, 21]: 1.66 μg/seed coat
Accumulation of soluble carbohydrates in soybean axis [1, 22]: 1.20 μg/axis
Accumulation of soluble carbohydrates in soybean cotyledon [1, 22]: 1.88 μg/cotyledon
Accumulation of soluble carbohydrates in soybean axis [1, 23]: 5.49 μg/axis
Accumulation of soluble carbohydrates in soybean cotyledon [1, 23]: 2.16 μg/cotyledon
change in concentration after feeding 50 mM myo-inositol to explants ([2]; axis and cotyledon tissue of mature seeds): 50%
increase after feeding 50 mM D-chiro-inositol to explants ([2]; cotyledon tissues): remained unchanged
